According to EP1795181B1, “Cosmetic and pharmaceutical uses of the dipeptide tyrosine-arginine in combination with niacinamide as substance P antagonist” (L'Oréal, priority 2005, dated 2013):
Not every detail of the peptide structures is certain; ends, links or a residue may be inferred.

What was measured:
[1] = tested on: peau humaine maintenue en survie; test: Histological evaluation of dermal oedema (semi-quantitative score 0-3) in surviving human skin stimulated with substance P; format: cell-based; conditions: for Pourcentage de capillaires dermiques dilatés: human skin explant, sections of example 1, substance P 10 µM with or without actives, score 0 (pas d'oedème) to 3 (oedème important), mean +/- spread
[2] = tested on: peau humaine maintenue en survie; test: Histological evaluation of the mean surface of dermal blood capillaries in surviving human skin stimulated with substance P; format: cell-based; conditions: for Pourcentage de capillaires sanguins dermiques dilatés: human skin explant, substance P 10 µM in culture medium with or without actives, niacinamide 0,5% and dipeptide 0,1% (b56 prints the reverse), mean +/- spread

SMILES	Pourcentage de capillaires dermiques dilatés [1]	Pourcentage de capillaires sanguins dermiques dilatés [2]	augmentation du score de l'oedème ([1]; substance P alone, versus peau témoin) [%]	score de l'oedème ([1]; substance P alone, peau témoin 0,86+/-0,7, score 0 to 3)	augmentation de la surface par rapport à la peau saine ([2]; substance P à 10 µM alone) [%]	surface occupée par la lumière des vaisseaux ([2]; substance P à 10 µM alone, peau saine 99+/-57,6 µm^2)
CCCCCCCCCCCCCCCCOC(=O)[C@H](CCCNC(=N)N)NC(=O)[C@H](Cc1ccc(O)cc1)NC(C)=O [dipeptide, N-acetyl-Tyrosine-Arginine-decahexyl ester]	1+/-0,6	103,16+/-34				
CSCC[C@H](NC(=O)[C@H](CC(C)C)NC(=O)CNC(=O)[C@H](Cc1ccccc1)NC(=O)[C@H](Cc1ccccc1)NC(=O)[C@H](CCC(N)=O)NC(=O)[C@H](CCC(N)=O)NC(=O)[C@@H]1CCCN1C(=O)[C@H](CCCCN)NC(=O)[C@@H]1CCCN1C(=O)[C@@H](N)CCCNC(=N)N)C(N)=O [substance P]	1,9+/-0.7	161,6+/-56.6	121	1,9+/-0,64	63	161,6+/-56,6 µm^2
